Library screen at single concentrations

Protein sequences, listed by entry. Tags and fused reporters are not part of them. Residues count along the entry.
UniProt P9WPC5, whole entry: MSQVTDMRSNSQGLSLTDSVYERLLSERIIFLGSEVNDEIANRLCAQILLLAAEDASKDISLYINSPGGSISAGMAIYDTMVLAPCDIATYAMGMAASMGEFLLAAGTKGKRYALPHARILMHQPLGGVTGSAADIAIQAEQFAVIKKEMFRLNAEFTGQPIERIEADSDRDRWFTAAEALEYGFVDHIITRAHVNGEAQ
UniProt P9WPC3, whole entry partner: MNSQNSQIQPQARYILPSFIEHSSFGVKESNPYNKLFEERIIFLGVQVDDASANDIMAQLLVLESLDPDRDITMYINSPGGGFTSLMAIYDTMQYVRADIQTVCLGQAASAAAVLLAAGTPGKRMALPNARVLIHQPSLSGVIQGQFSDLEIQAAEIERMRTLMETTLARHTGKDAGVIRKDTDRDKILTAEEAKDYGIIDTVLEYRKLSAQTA
UniProt P9WFT3, whole entry: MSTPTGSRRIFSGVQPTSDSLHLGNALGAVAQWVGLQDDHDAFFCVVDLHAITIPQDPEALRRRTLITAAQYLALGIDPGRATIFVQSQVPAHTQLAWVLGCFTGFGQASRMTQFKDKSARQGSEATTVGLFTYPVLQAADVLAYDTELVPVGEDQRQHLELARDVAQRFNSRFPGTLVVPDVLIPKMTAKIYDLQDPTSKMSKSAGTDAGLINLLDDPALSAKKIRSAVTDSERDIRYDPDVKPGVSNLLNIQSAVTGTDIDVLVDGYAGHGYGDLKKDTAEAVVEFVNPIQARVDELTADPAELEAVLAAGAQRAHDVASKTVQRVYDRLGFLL
UniProt Q8IDJ8, 1-583: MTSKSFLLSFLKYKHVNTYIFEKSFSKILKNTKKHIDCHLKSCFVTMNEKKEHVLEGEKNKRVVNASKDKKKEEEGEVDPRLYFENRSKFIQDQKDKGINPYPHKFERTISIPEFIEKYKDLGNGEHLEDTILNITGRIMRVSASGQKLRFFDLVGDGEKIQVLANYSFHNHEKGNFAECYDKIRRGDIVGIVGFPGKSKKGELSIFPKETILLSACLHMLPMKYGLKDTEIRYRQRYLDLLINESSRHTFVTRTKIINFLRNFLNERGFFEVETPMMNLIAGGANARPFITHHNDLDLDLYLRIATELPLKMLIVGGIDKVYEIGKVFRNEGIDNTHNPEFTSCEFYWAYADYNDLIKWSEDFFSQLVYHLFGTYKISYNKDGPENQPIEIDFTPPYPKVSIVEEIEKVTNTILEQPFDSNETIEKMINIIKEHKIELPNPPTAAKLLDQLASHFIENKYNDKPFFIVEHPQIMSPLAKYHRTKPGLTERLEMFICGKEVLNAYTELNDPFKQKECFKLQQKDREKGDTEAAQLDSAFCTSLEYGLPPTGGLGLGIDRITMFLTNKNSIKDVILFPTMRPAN

From ChEMBL document CHEMBL3988442, “University of Dundee, Small-Polar-MMV Screening Library” (2021).

A: 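ClpP1P2, Mycobacterium tuberculosis (UniProt P9WPC5 and UniProt P9WPC3). Protease assay of ClpP1P2, read by the AMC dye that it sets free. Compounds at 50 µM. Higher reads as stronger inhibition, judged from the few compounds that gave an IC50. Most other retested compounds had strongly negative values. Of about 69,000 compounds tested this way, about 10 (0.015%) reached 50% or more in at least one test.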
B: 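Enzyme assay of tryptophanyl-tRNA synthetase; the read-out is not stated. Target: Tryptophan-tRNA ligase, Mycobacterium tuberculosis (UniProt P9WFT3). Concentration: 10 µM. Higher most likely means stronger inhibition; the record gives no direction and few retests gave an IC50. About 65,000 compounds were tested under these conditions; 0.098% (about 64) showed 50% or more at least once.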
C: 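Lysine-tRNA ligase, Plasmodium falciparum 3D7 (UniProt Q8IDJ8). Enzyme assay of the cytosolic lysyl-tRNA synthetase in 384-well plates, read by luminescence. Compounds at 30 µM. Direction is inferred from only a few compounds that gave an IC50; most scored high, so higher reads as stronger inhibition. About 69,000 compounds were tested under these conditions; 0.071% (about 49) showed 50% or more at least once.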

Results are given as percent effect.
How 0% and 100% were set is not recorded. Most values in the screen are low, and negative values occur.
This is an unselected part of the compounds tested.

With Cc1ncsc1C(=O)OCC1CCN(c2ccccc2)C1 (stereo not shown) the screen gave A: -4.188%; B: 5.013%; C: 3.232%.
With CCc1nnc(Nc2cccc(C3CCCN(CC(C)(C)C)C3)n2)s1 (stereo not shown) the screen gave A: 5.082%; C: 2.061%.
With CCc1ccc(C(=O)N2CCC(c3nncn3CC)CC2)cc1 the screen gave A: -9.656%; B: 16.63%; C: -2.194%.
With CCN1CC(C(=O)NCc2cccnc2-n2cccn2)CC1=O (stereo not shown) the screen gave A: -30.05%; B: -3.135%; C: 0.7451%.
With CCOc1no[n+]([O-])c1-c1ccccc1 the screen gave A: -7.082%; B: -4.144%; C: -0.6247%.
With CCN(Cc1ccc(C(C)C)cc1)C(=O)c1csc(CN(C)C)n1 the screen gave A: 2.306%; B: -4.187%; C: 0.7077%.
With CC1CN(Cc2noc(C3CC3)n2)CCN1Cc1noc(C2CC2)n1 (stereo not shown) the screen gave A: -23.8%; B: -1.605%; C: 0.4341%.
With Cc1cnc(-c2nc(O)c3c(n2)CN(C(=O)C2CC2)CC3)cn1 the screen gave A: -29.31%; B: -7.572%; C: 2.243%.
With Nc1nnc(CCCNc2ncnc3c2CCN(C(=O)C2CC2)C3)s1 the screen gave A: -7.279%; B: -0.6791%; C: 3.583%.
With CCn1ccnc1CNc1nccc(-c2cn(C)nc2C)n1 the screen gave A: -0.08136%; B: 1.041%; C: 2.936%.
With O=C(NCC1Cn2nnc(-c3ccccc3)c2CO1)c1ccc[nH]1 (stereo not shown) the screen gave A: 13.64%; B: 6.452%; C: 5.913%.
With O=S(=O)(C1CC1)N1CCCn2nnc(Cn3cccc3)c2C1 the screen gave A: -8.308%; C: 1.778%.
With C=C(Cl)CN(C)C1CCN(CCc2ccccn2)CC1 the screen gave A: 6.064%; B: -7.143%; C: 2.794%.
With Clc1cccc2c3c([nH]c12)CCN(Cc1cc2n(n1)CCNC2)C3 the screen gave A: 4.939%; B: -2.362%; C: 7.58%.
With O=C(NCc1cccs1)C1CNCC12CCOCC2 (stereo not shown) the screen gave A: -15.55%; B: -7.9%; C: 8.625%.
With CN1CC(Oc2ccccc2)=NC(SCC(=O)Nc2ccc(Cl)cc2)=N1 the screen gave A: 14.58%; B: 5.649%; C: 10.15%.
With CNc1cc(CCNC(=O)CC(C)C)nc(-c2ccccn2)n1 the screen gave A: -9.565%; B: -2.243%; C: 3.651%.
With Cc1ccc(S(=O)(=O)N2Cc3c(CN(C)C)nn(C)c3C2)cc1 the screen gave A: -5.011%; B: 3.267%; C: 2.445%.
With Nc1nnc(CCCn2nnc(-c3ccccc3F)n2)s1 the screen gave A: -5.828%; B: 0.9332%; C: 1.298%.
With CC(C)(C)c1nnc(CN2CCCC2c2noc(C3CC3)n2)o1 (stereo not shown) the screen gave A: 7.766%; B: 2.041%; C: 6.502%.
With CC(C)S(=O)(=O)N1CCC(Cc2cccc(C(=O)O)c2)C1 (stereo not shown) the screen gave A: 4.104%; B: 0.7538%; C: 7.029%.
With O=C(C1CCOCC1)N1CCO[C@H]2[C@H](OCc3ccncc3)CC[C@@H]21 the screen gave A: 3.921%; B: 0.000006%; C: 7.858%.
With c1ncc2c(n1)CN(Cc1cn3ccsc3n1)CC2 the screen gave A: -3.543%; B: 1.432%; C: 1.192%.
With CN1CCCCC1c1ccc(-n2ccnc2)nc1 (stereo not shown) the screen gave A: 1.478%; B: -0.2038%; C: 3.414%.
With CSCCC(=O)N1CCCN(Cc2cnn(C(C)C)c2)CC1 the screen gave A: 14.61%; B: 20.31%; C: -2.036%.
With CC(=O)c1ccc(N2CCC(CO)(CCOc3ccccc3)CC2)nc1 the screen gave A: -21.08%; B: 1.408%; C: 6.588%.
With CC(=O)N1CCc2nnc(C3CCCN3CC3CCCCC3)n2CC1 (stereo not shown) the screen gave A: -9.145%; B: -5.961%; C: 2.097%.
With O=C(Cc1cn2ccsc2n1)N1CCCC(n2cncn2)C1 (stereo not shown) the screen gave A: 14.91%; B: -4.677%; C: 0.04689%.
With COc1cc(CN2CCCC2)ccc1OC12CCCN(CC1)C2 (stereo not shown) the screen gave A: 11.37%; B: 0.5825%; C: -0.7779%.
With CCNC(=O)NC[C@H]1COCc2nc3cc(C)ccc3n21 the screen gave A: -10%; B: -2.504%; C: 5.069%.
With Cc1cccc2c1N(C)C(=O)C21CC(=O)Nc2c1cnn2C(C)(C)C (stereo not shown) the screen gave A: -20.02%; B: 0.678%; C: 1.936%.
With O=S(=O)(C1CC1)N1CCn2cc(CNc3ccccn3)nc2C1 the screen gave A: -13.68%; B: 1.022%; C: 3.808%.
With CNC(=O)c1ccc(CNCc2ccc(SC)c(OC)c2)cc1 the screen gave A: 10.59%; B: 4.545%; C: -0.9873%.
With O=C(Cc1ccc(F)cc1)N1CCCCC1c1ccn2ccnc2n1 (stereo not shown) the screen gave A: -9.83%; B: 0.5853%; C: 1.056%.
With CC(C)CN1CC(C(=O)NCCNc2ncccn2)CC1=O (stereo not shown) the screen gave A: -14.6%; B: 0.4237%; C: -0.1623%.
With Cc1cc(C(=O)N2C[C@@H]3COC[C@]3(c3nnc(C)o3)C2)on1 the screen gave A: -3.748%; B: 1.687%; C: 4.643%.

Once more, the final 4:

CNC(=O)c1ccc(CNCc2ccc(SC)c(OC)c2)cc1 gave A: 10.59%; B: 4.545%; C: -0.9873%.
O=C(Cc1ccc(F)cc1)N1CCCCC1c1ccn2ccnc2n1 (stereo not shown) gave A: -9.83%; B: 0.5853%; C: 1.056%.
CC(C)CN1CC(C(=O)NCCNc2ncccn2)CC1=O (stereo not shown) gave A: -14.6%; B: 0.4237%; C: -0.1623%.
Cc1cc(C(=O)N2C[C@@H]3COC[C@]3(c3nnc(C)o3)C2)on1 gave A: -3.748%; B: 1.687%; C: 4.643%.